For at least one entry, the source does not settle the construct or the ends of the probe. Where cells or extracts were used, other partners may take part.

Amino acid sequences for entries named in this document (tags omitted). A change or cut given only in a name is not applied to a line headed by its entry.
UniProt P43694: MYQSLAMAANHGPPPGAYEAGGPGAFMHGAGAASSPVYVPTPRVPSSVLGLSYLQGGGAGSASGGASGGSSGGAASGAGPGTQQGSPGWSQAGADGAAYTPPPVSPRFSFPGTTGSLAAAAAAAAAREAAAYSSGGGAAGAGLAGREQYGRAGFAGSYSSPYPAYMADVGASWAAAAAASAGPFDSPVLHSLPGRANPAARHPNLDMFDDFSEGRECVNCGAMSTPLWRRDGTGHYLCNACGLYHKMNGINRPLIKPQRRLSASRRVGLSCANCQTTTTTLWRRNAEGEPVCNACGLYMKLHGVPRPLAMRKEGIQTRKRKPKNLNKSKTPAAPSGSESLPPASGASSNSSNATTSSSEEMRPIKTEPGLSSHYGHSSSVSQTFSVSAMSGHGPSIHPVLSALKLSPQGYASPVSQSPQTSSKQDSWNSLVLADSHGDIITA

The target in data set [1] is GATA4 wild type (Homo sapiens) (UniProt P43694). In words: EMSA. Conditions: poly(dI-dC); LightShift kit 1x binding buffer, 1 ug poly(dI-dC), 2 ul nuclear extract, 1 pmol biotin probe, 20 ul, 20 min at room temperature; 6% native PAGE, 0.5x TBE; protein in a lysate after overexpression; residues 1-442; protein details: Myc; label: biotin (cold as competitor). (In EMSA bound probe runs differently from free probe, usually more slowly.)

Data set [2] shares this target. In words: competition with a labelled probe. Conditions: 100-fold cold wild type oligonucleotide competes; LightShift kit 1x binding buffer, 1 ug poly(dI-dC), 2 ul nuclear extract, 1 pmol biotin probe, 20 ul, 20 min at room temperature; 6% native PAGE, 0.5x TBE; protein in a lysate after overexpression; residues 1-442; protein details: Myc; label: biotin (cold as competitor).

Take “GCAGTTAACTGATAATGACACTGTG (double strand) [dHAND GATA element]”: the binding result in data set [1] and in data set [2] was “binds” each time.

For the origin of these results see article PMC3633926.
